The values that follow come from PMC10155312.

Protein sequences, listed by entry. Tags and fused reporters are not part of them.
UniProt Q9DCJ1: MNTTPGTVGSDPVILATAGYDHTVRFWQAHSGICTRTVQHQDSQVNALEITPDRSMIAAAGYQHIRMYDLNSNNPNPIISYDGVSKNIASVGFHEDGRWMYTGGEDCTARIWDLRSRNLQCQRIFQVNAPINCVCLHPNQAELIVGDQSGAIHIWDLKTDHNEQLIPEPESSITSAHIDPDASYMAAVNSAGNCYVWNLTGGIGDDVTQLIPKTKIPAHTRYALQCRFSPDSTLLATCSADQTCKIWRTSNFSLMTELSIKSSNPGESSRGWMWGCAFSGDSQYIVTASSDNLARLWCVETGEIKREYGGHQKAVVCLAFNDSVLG

These are yes or no findings as the source states them, for the method shown. In cells and extracts the contact can be indirect. Some binding calls cover weakened binding; strength is not graded here.

For experiment [1], the target named is T1, Ufm1-specific ligase 1 (mouse (endogenous in mouse liver)) (UniProt Q8CCJ3).
T1 sequence: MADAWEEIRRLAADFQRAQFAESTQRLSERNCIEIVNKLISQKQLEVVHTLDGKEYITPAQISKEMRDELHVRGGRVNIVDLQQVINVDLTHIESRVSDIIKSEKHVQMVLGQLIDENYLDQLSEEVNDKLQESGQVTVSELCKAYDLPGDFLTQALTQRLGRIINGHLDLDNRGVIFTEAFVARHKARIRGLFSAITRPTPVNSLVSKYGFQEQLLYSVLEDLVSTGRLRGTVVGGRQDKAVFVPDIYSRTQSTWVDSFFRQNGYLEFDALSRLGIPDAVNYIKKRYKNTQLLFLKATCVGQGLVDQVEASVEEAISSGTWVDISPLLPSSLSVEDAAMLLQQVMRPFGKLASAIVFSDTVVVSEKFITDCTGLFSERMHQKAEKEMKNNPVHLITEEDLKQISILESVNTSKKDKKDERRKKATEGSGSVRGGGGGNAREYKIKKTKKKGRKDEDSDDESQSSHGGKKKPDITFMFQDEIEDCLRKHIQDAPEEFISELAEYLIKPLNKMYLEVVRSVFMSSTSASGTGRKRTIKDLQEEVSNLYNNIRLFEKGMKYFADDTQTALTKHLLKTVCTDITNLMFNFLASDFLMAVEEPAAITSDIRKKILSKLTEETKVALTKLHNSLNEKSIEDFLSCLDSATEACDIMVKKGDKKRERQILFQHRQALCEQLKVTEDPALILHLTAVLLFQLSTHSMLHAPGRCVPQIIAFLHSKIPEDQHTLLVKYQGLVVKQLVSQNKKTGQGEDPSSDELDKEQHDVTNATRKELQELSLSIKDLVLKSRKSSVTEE
The experiment in a line: co-IP; lysate of fresh liver tissue of 2-month-old wild-type mice (1500 ug total protein, Pierce IP Lysis Buffer with protease inhibitors); antibodies against Ufl1, Ufbp1 or GβL, protein A/G plus agarose beads overnight at 4 °C; six washes in lysis buffer; western blot; IgG as negative control. For orientation: In western blotting, separated proteins are transferred to a membrane and probed.

The target in experiment [2] is T2, Ufm1-binding protein 1 (mouse (endogenous in mouse liver)) (UniProt Q80WW9).
T2 sequence: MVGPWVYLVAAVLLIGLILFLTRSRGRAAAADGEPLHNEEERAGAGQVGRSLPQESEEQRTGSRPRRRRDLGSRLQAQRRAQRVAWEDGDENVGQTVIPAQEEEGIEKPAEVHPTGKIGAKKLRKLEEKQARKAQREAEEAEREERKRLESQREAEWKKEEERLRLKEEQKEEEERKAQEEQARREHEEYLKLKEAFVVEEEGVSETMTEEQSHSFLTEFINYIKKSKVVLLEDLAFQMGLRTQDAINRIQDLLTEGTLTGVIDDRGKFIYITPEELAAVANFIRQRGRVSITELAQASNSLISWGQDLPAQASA
The experiment is described as above.

Regarding GβL (from UniProt Q9DCJ1 1-326), the binding entry in experiment [1] and in experiment [2] was “binds” in each case.
